No constants are given. Whether binding was seen depends on the method and setting. Binding seen in cells or lysates may run through a third protein. A result given as binding can be weak or reduced; the word gives no strength. Where a sequence is shown, tags or fusion partners need not be part of it.
Molecular target: T1, MANF N-terminally tagged with a Venus fragment (pre-NV-MANF or pre-CV-MANF) (human) (UniProt P55145)
T1 sequence: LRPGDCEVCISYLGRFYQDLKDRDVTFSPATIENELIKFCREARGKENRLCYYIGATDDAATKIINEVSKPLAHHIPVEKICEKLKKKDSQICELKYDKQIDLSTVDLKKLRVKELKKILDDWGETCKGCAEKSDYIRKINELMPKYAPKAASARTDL
Assay: split reporter; split Venus BiFC (NV, VN173 and CV, VC155) in co-transfected HEK293 cells, fixed 20 to 24 h after transfection, confocal imaging, ER shown by anti-calreticulin

binding | Substance
binds | PGAM1 fused with a Venus fragment (BiFC)
binds | GRP78 fused C-terminally with a Venus fragment (BiFC)
no binding | ENOA fused with a Venus fragment (BiFC)

The remaining lines, values behind:

Substance | binding
PDIA6 fused C-terminally with a Venus fragment (BiFC) | binds
KCRB fused with a Venus fragment (BiFC) | binds
IF4A1 fused with a Venus fragment (BiFC) | no binding
CH60 fused with a Venus fragment (BiFC) | binds
ECHB fused with a Venus fragment (BiFC) | no binding
HS105 fused with a Venus fragment (BiFC) | no binding
